Publication PMC6509187

Biological target: T1, DNAX activation protein of 12 kDa (DAP12) (pig (endogenous in PAMs)) (UniProt Q9TU45)
T1 sequence: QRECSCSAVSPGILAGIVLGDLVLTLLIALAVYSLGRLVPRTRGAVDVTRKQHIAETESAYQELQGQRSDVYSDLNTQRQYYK
Assay: co-IP

For “nonmuscle myosin heavy chain IIA (NMHC-IIA) (pig (endogenous in PAMs))”, the binding was “binds”.

Results are given in words; binding and its absence hold for the method and conditions named. In cells and extracts the contact can be indirect. Binding calls can cover weak binding; strength is not graded here.
